Laboratory results from US20100160220A1.
No constants are given. Whether binding was seen depends on the method and setting. For some assays here: In cells and extracts the contact can be indirect. Some binding calls cover weakened binding; strength is not graded here. One block for each substance: values may come before it.

Chains of the proteins cited; added tags and fusions are not shown. Lines headed by an entry give the natural chain unless they say otherwise; changes in a name come on top. A line that says so, or that is headed by a name, gives the form on record, which may keep a tag or linker. Residues count along the entry.
UniProt P37173, residues 23-567: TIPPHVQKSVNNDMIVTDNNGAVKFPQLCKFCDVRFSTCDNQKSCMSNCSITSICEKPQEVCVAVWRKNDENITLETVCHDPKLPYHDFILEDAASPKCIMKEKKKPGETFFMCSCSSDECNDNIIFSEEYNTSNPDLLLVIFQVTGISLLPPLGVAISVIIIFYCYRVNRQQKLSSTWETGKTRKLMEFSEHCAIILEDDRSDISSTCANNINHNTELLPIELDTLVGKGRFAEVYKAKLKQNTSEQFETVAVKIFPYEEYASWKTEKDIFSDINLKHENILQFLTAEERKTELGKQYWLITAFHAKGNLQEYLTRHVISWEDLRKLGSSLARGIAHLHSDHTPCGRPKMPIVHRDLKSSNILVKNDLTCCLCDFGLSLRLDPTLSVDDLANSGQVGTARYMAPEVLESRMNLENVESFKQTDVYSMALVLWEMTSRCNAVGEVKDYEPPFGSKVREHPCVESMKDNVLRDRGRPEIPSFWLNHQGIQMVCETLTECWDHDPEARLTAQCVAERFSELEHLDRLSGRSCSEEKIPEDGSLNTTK
UniProt Q03431, residues 27-593: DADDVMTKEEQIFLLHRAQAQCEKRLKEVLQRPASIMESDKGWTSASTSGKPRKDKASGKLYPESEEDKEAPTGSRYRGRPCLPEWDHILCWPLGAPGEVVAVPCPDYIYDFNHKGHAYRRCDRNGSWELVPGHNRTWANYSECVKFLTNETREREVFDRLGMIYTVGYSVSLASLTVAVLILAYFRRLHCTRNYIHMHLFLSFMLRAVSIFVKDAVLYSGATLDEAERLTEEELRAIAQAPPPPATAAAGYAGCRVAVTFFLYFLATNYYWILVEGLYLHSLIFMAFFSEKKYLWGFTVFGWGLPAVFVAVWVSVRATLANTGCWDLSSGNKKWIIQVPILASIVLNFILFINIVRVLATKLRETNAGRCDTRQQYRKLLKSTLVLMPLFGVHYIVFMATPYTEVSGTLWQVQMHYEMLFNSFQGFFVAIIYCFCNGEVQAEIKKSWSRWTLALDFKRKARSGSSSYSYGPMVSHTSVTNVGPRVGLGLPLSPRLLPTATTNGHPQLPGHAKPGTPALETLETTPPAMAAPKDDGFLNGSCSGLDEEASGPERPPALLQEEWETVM
UniProt P01270, residues 32-65: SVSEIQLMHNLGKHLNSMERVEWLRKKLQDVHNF
UniProt Q13705, residues 19-512: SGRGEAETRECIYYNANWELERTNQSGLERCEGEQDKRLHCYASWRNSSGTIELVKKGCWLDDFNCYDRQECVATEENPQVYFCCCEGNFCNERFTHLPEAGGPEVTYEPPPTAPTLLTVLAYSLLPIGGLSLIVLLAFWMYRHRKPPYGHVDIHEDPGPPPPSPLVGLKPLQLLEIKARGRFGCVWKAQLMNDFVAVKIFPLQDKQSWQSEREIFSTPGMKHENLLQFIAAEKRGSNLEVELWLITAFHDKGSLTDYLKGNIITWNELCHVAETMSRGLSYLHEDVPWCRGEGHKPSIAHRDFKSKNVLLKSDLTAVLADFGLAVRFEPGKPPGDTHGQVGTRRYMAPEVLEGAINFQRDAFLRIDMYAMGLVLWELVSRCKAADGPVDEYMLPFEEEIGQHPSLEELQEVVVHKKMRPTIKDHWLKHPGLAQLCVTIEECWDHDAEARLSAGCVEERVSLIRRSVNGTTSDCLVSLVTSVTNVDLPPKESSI
Flag-BMPRII short form (Q13873, form named): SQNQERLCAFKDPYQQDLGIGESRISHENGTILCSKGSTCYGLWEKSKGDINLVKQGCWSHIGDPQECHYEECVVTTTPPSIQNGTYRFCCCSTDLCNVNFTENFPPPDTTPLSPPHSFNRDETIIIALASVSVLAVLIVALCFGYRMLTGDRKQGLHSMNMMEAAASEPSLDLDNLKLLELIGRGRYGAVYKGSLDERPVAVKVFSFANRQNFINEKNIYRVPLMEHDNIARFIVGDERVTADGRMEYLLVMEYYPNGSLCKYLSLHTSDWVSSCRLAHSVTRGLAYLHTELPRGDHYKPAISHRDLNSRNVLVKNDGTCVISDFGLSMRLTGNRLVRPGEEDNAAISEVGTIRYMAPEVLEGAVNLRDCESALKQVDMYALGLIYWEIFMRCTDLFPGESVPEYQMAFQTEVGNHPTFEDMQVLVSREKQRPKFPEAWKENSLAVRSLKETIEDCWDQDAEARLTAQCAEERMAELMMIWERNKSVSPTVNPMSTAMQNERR
UniProt P27037, residues 20-513: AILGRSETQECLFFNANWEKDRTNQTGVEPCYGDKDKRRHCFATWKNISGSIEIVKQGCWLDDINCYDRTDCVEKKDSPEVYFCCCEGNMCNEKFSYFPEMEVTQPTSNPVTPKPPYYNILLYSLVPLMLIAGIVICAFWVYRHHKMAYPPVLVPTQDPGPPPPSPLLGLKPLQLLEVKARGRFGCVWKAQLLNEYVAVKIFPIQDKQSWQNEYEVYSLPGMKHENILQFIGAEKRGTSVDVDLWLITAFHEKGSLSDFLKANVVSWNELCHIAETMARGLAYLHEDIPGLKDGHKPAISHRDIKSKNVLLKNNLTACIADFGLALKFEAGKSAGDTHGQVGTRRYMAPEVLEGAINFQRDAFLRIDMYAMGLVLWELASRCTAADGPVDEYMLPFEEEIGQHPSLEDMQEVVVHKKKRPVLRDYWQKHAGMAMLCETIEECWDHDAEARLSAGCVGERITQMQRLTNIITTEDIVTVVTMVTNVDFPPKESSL
UniProt O75581: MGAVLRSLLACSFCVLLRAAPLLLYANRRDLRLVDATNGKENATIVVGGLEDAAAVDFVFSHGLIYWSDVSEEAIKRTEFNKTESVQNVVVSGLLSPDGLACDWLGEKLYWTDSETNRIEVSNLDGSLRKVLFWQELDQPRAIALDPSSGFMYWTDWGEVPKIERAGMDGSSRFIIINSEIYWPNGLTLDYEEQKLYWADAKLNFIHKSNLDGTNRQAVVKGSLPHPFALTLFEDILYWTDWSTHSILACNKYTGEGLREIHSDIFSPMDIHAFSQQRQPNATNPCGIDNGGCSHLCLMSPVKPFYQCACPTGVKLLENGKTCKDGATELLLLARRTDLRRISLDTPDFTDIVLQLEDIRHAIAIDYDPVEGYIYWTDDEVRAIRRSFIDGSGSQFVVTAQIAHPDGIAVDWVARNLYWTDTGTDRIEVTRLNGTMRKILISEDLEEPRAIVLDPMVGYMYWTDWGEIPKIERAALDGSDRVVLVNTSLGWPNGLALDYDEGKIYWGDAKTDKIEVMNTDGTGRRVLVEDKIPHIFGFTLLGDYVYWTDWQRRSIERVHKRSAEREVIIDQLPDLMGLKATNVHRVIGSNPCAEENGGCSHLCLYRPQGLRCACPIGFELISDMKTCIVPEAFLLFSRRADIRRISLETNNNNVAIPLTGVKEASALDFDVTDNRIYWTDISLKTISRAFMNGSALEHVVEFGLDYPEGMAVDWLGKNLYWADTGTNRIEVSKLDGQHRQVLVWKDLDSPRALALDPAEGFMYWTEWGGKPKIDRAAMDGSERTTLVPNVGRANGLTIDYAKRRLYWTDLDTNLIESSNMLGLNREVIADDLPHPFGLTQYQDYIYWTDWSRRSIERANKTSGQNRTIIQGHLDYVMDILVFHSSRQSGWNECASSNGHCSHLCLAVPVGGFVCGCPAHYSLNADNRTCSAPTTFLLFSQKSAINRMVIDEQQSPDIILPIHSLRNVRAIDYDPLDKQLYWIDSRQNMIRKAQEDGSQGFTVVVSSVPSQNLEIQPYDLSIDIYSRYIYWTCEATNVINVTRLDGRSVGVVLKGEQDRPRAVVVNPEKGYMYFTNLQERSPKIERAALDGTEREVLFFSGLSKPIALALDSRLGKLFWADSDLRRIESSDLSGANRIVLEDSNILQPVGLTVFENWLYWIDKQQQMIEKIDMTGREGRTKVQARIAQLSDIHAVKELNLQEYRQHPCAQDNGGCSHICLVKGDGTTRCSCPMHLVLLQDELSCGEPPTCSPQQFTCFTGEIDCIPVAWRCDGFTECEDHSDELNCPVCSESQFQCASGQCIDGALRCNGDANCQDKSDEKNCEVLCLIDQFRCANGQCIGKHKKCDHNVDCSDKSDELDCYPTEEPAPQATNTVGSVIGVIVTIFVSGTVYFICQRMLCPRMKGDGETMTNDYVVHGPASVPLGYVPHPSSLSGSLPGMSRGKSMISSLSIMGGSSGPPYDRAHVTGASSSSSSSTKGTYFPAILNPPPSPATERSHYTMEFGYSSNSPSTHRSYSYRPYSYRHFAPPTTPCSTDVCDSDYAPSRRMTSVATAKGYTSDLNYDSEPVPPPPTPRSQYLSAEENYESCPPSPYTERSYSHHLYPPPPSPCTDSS

Columns and labels:
Flag-TGFβRII [1] = biological target: Flag-TGFβRII (UniProt P37173); experiment: Biotin-PTH (1-34) labeling of Flag-TGFβRII-transfected 293 cells; Western blot and anti-Flag IP
Flag-TGFβRII [2] = biological target: Flag-TGFβRII (UniProt P37173); experiment: 293 cells transfected with Flagged TGFβRII labeled with Biotin-PTH (1-34); anti-Flag IP, anti-Biotin Western blot
[3] = biological target: endogenous PTH1R of embryonic kidney 293 / 293T cells (human) (UniProt Q03431); experiment: co-IP with anti-ActRIIB, Western blot; 293 cells
[4] = biological target: endogenous PTH1R of embryonic kidney 293 / 293T cells (human) (UniProt Q03431); experiment: co-IP with anti-ActRIIB, blot anti-PTH1R; 293 cells with vehicle or PTH (1-34) 50 nM
Flag-TGFβRII [5] = biological target: Flag-TGFβRII (UniProt P37173); experiment: fluorescence microscopy, HEK293-PTH1R cells expressing Flag-tagged TGFβRII
[6] = biological target: PTH1R tagged with HA (human) (UniProt Q03431); experiment: reciprocal co-IP (anti-Flag / anti-HA), 293 cells
[7] = biological target: endogenous PTH1R of embryonic kidney 293 / 293T cells (human) (UniProt Q03431); experiment: co-IP with anti-ActRII, blot anti-PTH1R; 293 cells with vehicle or PTH (1-34) 50 nM
[8] = biological target: endogenous PTH1R of embryonic kidney 293 / 293T cells (human) (UniProt Q03431); experiment: co-IP with anti-ActRII, Western blot; 293 cells
[9] = biological target: PTH1R tagged with HA (human) (UniProt Q03431); experiment: interaction test with conditioned medium; format not described
[10] = biological target: PTH1R tagged with HA (human) (UniProt Q03431); experiment: co-IP anti-HA / anti-VSVG, HEK 293 cells
[11] = biological target: PTH1R tagged with HA (human) (UniProt Q03431); experiment: co-IP anti-VSVG, blot anti-HA, 293HEK cells

Substance: Biotin-PTH (1-34) (from UniProt P01270 32-65) (peptide)
- binding (Flag-TGFβRII [1]): binds
- binding (Flag-TGFβRII [2]): binds

Substance: endogenous ActRIIB of embryonic kidney 293 cells (from UniProt Q13705 19-512) (receptor)
- binding [3]: binds
- binding [4]: binds

Substance: PTH^TMR (red fluorescent PTH (1-34)) (from UniProt P01270 32-65) (peptide)
- binding (Flag-TGFβRII [5]): binds

Substance: Flag-BMPRII short form (from UniProt Q13873 27-530) (receptor)
- binding [6]: binds

Further lines, results first:

- binding [7]: binds
- binding [8]: binds
Substance: endogenous ActRII of embryonic kidney 293 cells (from UniProt P27037 20-513) (receptor)

- binding [9]: binds
Substance: LRP6N-IgG (conditioned medium) (from UniProt O75581 20-1370) (Fc fusion)

- binding [10]: binds
- binding [11]: binds
Substance: VSVG-tagged LRP6N (from UniProt O75581 20-1393) (receptor)
